# Assay results published in article doi:10.1101/2020.09.30.321497.
# Protein sequences, listed by entry. Tags and fused reporters are not part of them.
# UniProt P70689: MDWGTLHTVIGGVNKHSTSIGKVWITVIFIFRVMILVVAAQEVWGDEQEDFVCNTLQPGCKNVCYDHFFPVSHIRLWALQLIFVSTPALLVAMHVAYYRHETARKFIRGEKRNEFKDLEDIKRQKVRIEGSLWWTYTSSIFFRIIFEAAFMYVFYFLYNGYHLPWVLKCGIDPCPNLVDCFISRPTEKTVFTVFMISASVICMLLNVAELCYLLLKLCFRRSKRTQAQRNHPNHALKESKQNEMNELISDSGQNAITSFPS
# UniProt Q6URW6: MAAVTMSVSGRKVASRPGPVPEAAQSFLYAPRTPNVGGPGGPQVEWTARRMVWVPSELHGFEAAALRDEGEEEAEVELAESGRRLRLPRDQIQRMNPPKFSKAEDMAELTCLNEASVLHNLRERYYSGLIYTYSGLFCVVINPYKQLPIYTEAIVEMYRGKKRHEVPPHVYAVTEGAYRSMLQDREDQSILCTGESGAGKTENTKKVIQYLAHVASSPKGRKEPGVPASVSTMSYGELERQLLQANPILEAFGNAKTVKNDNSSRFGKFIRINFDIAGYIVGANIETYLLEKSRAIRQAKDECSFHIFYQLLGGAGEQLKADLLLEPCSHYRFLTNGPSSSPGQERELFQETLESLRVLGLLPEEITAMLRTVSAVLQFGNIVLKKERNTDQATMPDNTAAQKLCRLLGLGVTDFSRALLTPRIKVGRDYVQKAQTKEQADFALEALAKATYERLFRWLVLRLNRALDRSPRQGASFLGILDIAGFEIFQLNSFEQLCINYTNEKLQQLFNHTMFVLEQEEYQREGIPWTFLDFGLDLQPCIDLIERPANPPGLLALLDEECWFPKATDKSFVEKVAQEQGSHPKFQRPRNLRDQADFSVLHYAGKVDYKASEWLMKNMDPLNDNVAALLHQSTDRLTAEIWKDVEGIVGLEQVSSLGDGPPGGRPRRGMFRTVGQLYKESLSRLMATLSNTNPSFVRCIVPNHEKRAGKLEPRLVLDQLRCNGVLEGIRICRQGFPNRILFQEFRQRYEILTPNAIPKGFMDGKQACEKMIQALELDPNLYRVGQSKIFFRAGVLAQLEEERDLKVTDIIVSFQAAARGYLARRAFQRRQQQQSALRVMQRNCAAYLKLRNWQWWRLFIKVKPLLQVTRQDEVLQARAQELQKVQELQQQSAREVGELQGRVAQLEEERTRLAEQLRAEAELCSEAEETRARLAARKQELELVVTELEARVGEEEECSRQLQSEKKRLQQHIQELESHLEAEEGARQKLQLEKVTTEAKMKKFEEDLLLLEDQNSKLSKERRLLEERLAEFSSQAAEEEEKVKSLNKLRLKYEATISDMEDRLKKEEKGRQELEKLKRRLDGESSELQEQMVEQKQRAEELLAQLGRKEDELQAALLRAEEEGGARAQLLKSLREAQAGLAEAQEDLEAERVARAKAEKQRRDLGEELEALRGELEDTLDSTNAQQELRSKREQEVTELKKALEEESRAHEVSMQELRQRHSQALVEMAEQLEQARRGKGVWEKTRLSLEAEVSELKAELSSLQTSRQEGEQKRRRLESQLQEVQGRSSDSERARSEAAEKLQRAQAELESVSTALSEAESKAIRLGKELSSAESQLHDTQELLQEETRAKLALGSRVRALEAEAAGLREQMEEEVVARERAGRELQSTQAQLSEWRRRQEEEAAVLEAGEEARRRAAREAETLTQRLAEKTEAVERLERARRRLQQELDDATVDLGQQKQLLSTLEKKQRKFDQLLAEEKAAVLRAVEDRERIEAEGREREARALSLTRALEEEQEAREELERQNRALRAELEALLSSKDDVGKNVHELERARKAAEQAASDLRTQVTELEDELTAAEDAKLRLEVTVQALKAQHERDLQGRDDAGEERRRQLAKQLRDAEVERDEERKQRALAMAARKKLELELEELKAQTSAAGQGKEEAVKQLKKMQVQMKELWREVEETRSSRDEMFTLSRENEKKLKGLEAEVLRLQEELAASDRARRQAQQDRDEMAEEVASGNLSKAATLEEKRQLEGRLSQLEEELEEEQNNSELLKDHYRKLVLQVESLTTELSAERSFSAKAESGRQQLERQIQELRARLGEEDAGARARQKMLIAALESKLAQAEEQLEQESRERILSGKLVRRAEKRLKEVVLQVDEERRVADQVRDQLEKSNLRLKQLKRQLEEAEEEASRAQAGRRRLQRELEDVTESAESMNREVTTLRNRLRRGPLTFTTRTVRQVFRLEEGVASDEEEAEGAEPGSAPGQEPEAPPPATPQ
# UniProt P70336: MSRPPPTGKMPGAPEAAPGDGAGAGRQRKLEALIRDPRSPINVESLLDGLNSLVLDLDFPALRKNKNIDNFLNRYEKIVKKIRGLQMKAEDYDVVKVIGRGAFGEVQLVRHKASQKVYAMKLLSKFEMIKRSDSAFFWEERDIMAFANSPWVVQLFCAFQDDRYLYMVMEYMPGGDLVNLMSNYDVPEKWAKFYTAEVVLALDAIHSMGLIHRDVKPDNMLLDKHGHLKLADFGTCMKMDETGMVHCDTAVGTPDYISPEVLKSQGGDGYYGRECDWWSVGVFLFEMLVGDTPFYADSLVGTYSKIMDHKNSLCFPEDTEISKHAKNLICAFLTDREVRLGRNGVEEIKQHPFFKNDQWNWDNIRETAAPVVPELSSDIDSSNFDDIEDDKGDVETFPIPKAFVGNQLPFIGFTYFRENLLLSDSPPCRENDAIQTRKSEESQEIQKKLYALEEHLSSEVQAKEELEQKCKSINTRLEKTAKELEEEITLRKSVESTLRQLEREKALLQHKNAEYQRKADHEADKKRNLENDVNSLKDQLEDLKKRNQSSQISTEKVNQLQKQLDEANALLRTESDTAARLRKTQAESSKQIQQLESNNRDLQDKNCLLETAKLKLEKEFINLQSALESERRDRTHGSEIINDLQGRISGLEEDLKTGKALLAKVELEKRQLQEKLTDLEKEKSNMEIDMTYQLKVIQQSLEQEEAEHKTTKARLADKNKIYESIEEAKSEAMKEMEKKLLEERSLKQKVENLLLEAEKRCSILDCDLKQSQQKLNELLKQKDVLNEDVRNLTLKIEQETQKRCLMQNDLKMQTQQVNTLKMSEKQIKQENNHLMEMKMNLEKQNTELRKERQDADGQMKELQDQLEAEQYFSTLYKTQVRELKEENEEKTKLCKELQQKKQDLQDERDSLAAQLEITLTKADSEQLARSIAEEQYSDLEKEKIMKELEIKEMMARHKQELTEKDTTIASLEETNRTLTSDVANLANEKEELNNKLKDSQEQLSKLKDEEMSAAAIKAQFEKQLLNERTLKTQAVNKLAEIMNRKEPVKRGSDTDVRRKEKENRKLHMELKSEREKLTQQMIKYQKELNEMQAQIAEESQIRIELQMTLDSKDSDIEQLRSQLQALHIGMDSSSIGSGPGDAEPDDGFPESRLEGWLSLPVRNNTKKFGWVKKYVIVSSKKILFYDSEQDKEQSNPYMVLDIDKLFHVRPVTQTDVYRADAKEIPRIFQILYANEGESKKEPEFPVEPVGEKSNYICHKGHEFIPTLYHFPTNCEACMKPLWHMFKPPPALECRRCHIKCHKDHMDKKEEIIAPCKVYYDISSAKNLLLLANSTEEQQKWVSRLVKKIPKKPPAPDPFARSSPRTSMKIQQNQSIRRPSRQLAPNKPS
# No constants are given. Whether binding was seen depends on the method and setting. Binding seen in cells or lysates may run through a third protein. Here binding means that the protein was enriched with, or labelled near, the bait; the list need not be complete.
# Target: connexin 30 (mouse (endogenous in mouse visual cortex)) (UniProt P70689)
# Experiment: affinity purification with mass spectrometry
row,binding,Substance
1,binds,Myosin 14 (from UniProt Q6URW6 1-2000)
2,binds,Rho-associated protein kinase ROCK2 (from UniProt P70336 1-1388)
